{"source": "patent US5891467A", "about": "“Method for utilizing neutral lipids to modify in vivo release from multivesicular liposomes” (priority 1997, dated 1999)", "assay": "in vivo", "details": "dog, csf, 5 mg", "data": [{"smiles": "CN1CC[C@]23c4c5ccc(O)c4O[C@H]2[C@@H](O)C=C[C@H]3[C@H]1C5", "note": "[unencapsulated morphine, morphine]", "values": [{"measurement": "MRT", "value": 1.6, "unit": "h"}]}]}
